# Values from PubChem BioAssay AID504764 (Drosophila RNAi Screening Center, 2011)
# Purpose: 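Genome-wide screen for regulators of Notch-driven gene expression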 (primary screen)
# Cells: Drosophila Kc167 cells
# Knock-down reagent: long dsRNA against Drosophila genes
# Duration: about 5 days (4 days dsRNA, then 24 h after transfection)
# Conditions: transfection of constitutively active membrane-tethered Notch lacking the extracellular domain, read 24 h later
# Read-out: 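Firefly luciferase from an E(spl)m3 reporter with active Notch, plus control-promoter and uninduced reporter wells for normalisation; unnormalised counts, duplicate wells a and b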
# Direction: induced reporter light, run 1, well a and induced reporter light, run 1, well b: higher = more light from the Notch target reporter with active Notch; control promoter light, run 1, well a and control promoter light, run 1, well b: higher = more light from the viral control promoter (cell number, transfection, viability); uninduced reporter light, run 1, well a: higher = more light from the Notch target reporter without active Notch
# Active means: 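Hit if the duplicate-averaged log2 ratio of induced to control-promoter light gives a plate-wise z beyond ±2, or induced to uninduced beyond ±1.8; weak-control or discordant-duplicate wells dropped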
# Calls: active = modifier hit (raised or lowered Notch signal); inactive = not a hit
# The screen tested about 22,000 reagents; shown is an unselected part of those that have a named target and a result. Over the whole deposit, 403 (1.9%) are marked active. 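Unnormalised raw counts per well; ratio z-scores behind the hit calls and whether each hit raises or lowers signal are not deposited.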 A number with no mark means an inactive call. Names joined by + are all predicted targets of the reagent. No sequences are given here. Not stated in the record: the amount of reagent.
Gene,PubChem SID,"induced reporter light, run 1, well a","induced reporter light, run 1, well b","control promoter light, run 1, well a","control promoter light, run 1, well b","uninduced reporter light, run 1, well a"
CG7789,SID104196104,85670,92550,1.76e5,1.31e5,8560
DNaseII,SID104196102,2.38e5,2.06e5,2.52e5,2.52e5,19140
Strip,SID104187986,69840,71010,40295,23010,7995
LRR,SID104186236,2.28e5,2.26e5,2.94e5,2.63e5,18438
arg,SID104198529,1.71e5,1.82e5,2.27e5,2.00e5,12765
asRNA:CR33945,SID104193872,88660,86765,86155,1.11e5,6360
Vsp37A,SID104198586,1.22e5,1.51e5,2.31e5,2.05e5,9550
CG34260 + cmpy,SID104191493,1.50e5,1.09e5,86120,85230,9710
CG10333,SID104181828,1.67e5 (active),1.69e5,1.07e5,1.14e5,7115
Stip1,SID104180548,1.08e5,1.27e5,94885,1.01e5,11145
RPA1,SID104196622,83065,68115,47785,33185,9300
crm,SID104198546,2.14e5,2.45e5,3.10e5,3.33e5,14860
Cbp53E,SID104187148,78700,80240,1.19e5,1.44e5,6735
Polr1A,SID104187327,1.23e5 (active),91575,91715,70645,5900
Nf-YA,SID104190177,21375,24940,25635,19650,3160
Kebab,SID104180619,2.30e5,2.24e5,1.55e5,1.90e5,16730
Nepl14,SID104195423,2.28e5,2.02e5,2.45e5,1.93e5,17770
caly,SID104186974,1.11e5,1.16e5,2.71e5,2.42e5,10560
Ppi1,SID104195213,1.62e5,1.68e5,2.43e5,2.40e5,9825
alpha-Spec,SID104188496,1.04e5,91135,1.82e5,2.09e5,8445
Dlip3,SID104187193,32955,28805,32315,17265,3275
CG4115,SID104195337,72975,66230,54085,50570,4770
CG11593,SID104187998,1.30e5,1.15e5,1.63e5,1.74e5,8275
kcc,SID104184108,1.96e5,2.14e5,1.97e5,2.10e5,17955
kcc,SID104184308,2.24e5,1.88e5,1.84e5,1.56e5,13900
atilla,SID104182763,1.57e5,1.71e5,1.36e5,1.57e5,11575
CG11127,SID104185835,1.47e5,1.71e5,1.48e5,1.45e5,11435
mRpS33,SID104194031,2.19e5,2.20e5,2.34e5,2.32e5,15865
CG15631,SID104180258,1.58e5,1.19e5,1.54e5,1.31e5,9285
Hr39,SID104183138,1.75e5,2.12e5,1.80e5,1.76e5,16420
CG7872,SID104199854,98585,1.19e5,1.25e5,1.35e5,9040
beta4GalNAcTA,SID104185736,1.64e5,1.70e5,2.34e5,2.20e5,12342
CG8312,SID104196198,54385,50835,30730,24540,4515
CG34232,SID104185124,2.14e5,2.07e5,1.96e5,1.85e5,16385
CG14142,SID104189937,2.47e5,2.46e5,2.73e5,2.27e5,14415
TBC1D16,SID104182633,1.02e5,1.19e5,68205,82985,17905
eIF4E3,SID104190744,90285,1.02e5,72995,29470,11935
lectin-24A,SID104180396,63905,58080,69510,55840,3985
tra2,SID104187500,1.55e5,1.61e5,1.58e5,1.59e5,16235
CG18809,SID104199610,1.14e5,1.26e5,1.48e5,1.81e5,15070
snoRNA:Me28S-A982b + Uhg4 + snoRNA:Me28S-G3255a + 1 more,SID104184935,35190,41175,45290,47230,2020
CG12716,SID104199285,1.24e5,1.15e5,2.47e5,2.02e5,10025
CG33998,SID104185539,1.29e5,1.16e5,1.82e5,1.27e5,8130
CG13436,SID104186188,1.20e5,1.37e5,2.31e5,2.02e5,8688
Takl2,SID104195442,1.86e5,1.78e5,1.83e5,1.99e5,12692
Hexo2,SID104198463,1.39e5,1.47e5,2.34e5,2.36e5,11325
Tbc1d8-9,SID104191612,1.41e5,1.53e5,91430,97400,11630
CG12236,SID104197622,6275,6928,9405,8160,5190
CG12236,SID104197623,1.08e5,92460,1.22e5,1.47e5,5690
Spn28Dc,SID104182821,1.11e5,1.23e5,66430,1.06e5,17530

7 consecutive entries from above:
Gene,PubChem SID,"induced reporter light, run 1, well a","induced reporter light, run 1, well b","control promoter light, run 1, well a","control promoter light, run 1, well b","uninduced reporter light, run 1, well a"
CG15631,SID104180258,1.58e5,1.19e5,1.54e5,1.31e5,9285
Hr39,SID104183138,1.75e5,2.12e5,1.80e5,1.76e5,16420
CG7872,SID104199854,98585,1.19e5,1.25e5,1.35e5,9040
beta4GalNAcTA,SID104185736,1.64e5,1.70e5,2.34e5,2.20e5,12342
CG8312,SID104196198,54385,50835,30730,24540,4515
CG34232,SID104185124,2.14e5,2.07e5,1.96e5,1.85e5,16385
CG14142,SID104189937,2.47e5,2.46e5,2.73e5,2.27e5,14415
